According to US7994121B2, “Stable analogs of peptide and polypeptide therapeutics” (Trustees of Tufts College, priority 2003, dated 2011):
“Also recorded” adds a separate entry of the source. Not every detail of the peptide structures is certain; ends, links or a residue may be inferred.

Chains of the proteins cited; added tags and fusions are not shown. Residues count along the entry.
UniProt P43220, 24-463: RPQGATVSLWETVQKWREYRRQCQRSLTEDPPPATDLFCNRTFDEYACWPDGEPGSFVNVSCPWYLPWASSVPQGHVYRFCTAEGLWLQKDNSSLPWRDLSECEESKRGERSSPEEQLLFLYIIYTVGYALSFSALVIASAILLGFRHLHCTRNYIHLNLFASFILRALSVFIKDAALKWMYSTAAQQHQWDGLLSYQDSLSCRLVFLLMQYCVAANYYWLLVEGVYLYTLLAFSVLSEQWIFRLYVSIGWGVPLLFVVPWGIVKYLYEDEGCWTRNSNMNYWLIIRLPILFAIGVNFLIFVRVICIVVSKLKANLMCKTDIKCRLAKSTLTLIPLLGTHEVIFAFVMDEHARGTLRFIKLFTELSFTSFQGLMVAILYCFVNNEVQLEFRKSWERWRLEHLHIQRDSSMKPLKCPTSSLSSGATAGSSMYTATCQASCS

Legend:
[1] = molecular target: T1, GLP-1 receptor (Homo sapiens, UniProt P43220); assay: cAMP production in COS-7 cells transiently transfected with human GLP-1 receptor; format: cell-based; set-up: expressed in transfected cells; host or cells: COS-7; conditions: analog 10 μM vs native GLP-1 0.3 μM, one hour at room temperature
[2] = molecular target: T1, GLP-1 receptor; assay: Binding of GLP-1 analog to its receptor; conditions: compared with native GLP-1

## CC[C@H](C)[C@H](NC(=O)[C@H](Cc1ccccc1)NC(=O)[C@H](CCC(=O)O)NC(=O)[C@H](CCCCN)NC(=O)[C@H](C)NC(=O)[C@H](C)NC(=O)[C@H](CCC(N)=O)NC(=O)CNC(=O)[C@H](CCC(=O)O)NC(=O)[C@H](CC(C)C)NC(=O)[C@H](Cc1ccc(O)cc1)NC(=O)[C@H](CO)NC(=O)[C@H](CO)NC(=O)[C@@H](NC(=O)[C@H](CC(=O)O)NC(=O)[C@H](CO)NC(=O)[C@@H](NC(=O)[C@H](Cc1ccccc1)NC(=O)[C@@H](NC(=O)CNC(=O)C(NC(=O)[C@H](C)NC(=O)[C@@H](N)Cc1c[nH]cn1)C(C)(C)C(=O)O)[C@@H](C)O)[C@@H](C)O)C(C)C)C(=O)N[C@@H](C)C(=O)N[C@@H](Cc1c[nH]c2ccccc12)C(=O)N[C@@H](CC(C)C)C(=O)N[C@H](C(=O)N[C@@H](CCCCN)C(=O)NCC(=O)N[C@@H](CCCNC(=N)N)C(=O)NCC(=O)O)C(C)C (stereo partly drawn) [GLP-1 (3DMA)]
[1]
  signaling via the GLP-1 receptor (cAMP content): potentiated signaling via the GLP-1 receptor to an extent indistinguishable from native GLP-1
[1]; listed as GLP-1 (3-DMA)
  signaling via the GLP-1 receptor (cAMP content): substantially identical signaling potential
[2]
  binding to the GLP-1 receptor: similar, although not identical, affinities; also recorded: retained the ability to bind the GLP-1 receptor; also recorded: similar, although not identical, to that of the native peptide
